Laboratory results from patent US20250171414A1, “COMPOUND SERVING AS MASP-2 INHIBITOR, PHARMACEUTICAL COMPOSITION, PREPARATION METHOD THEREFOR, AND USE THEREOF” (WUHAN CREATERNA SCIENCE AND TECHNOLOGY CO., LTD., priority 2022, published 2025).
At least one structure is not confirmed: it was looked up by name or label, or the drawing left a doubt.

Test system: lectin pathway (MBL) in human serum
Assay: Inhibition of activity of lectin pathway (MBL) in human serum (WIESLAB Complement System MBL Pathway kit)
Format: biochemical
Conditions: 1% human serum
Method: The inhibition of the activity of the lectin pathway (MBL) in human serum by compounds was detected using a WIESLAB® Complement System MBL Pathway kit (SVAR, COMPLMP320). Test compounds were each serially diluted in a buffer (Diluent MP), and 1% human serum was incubated with the diluted compound solution for 15 min at room temperature. 100 μL of the mixture was added to a microplate and incubated at 37° C. for 60 min. The liquid in the wells was discarded, and the microplate was washed three times with a washing solution. A Conjugate antibody solution was added at 100 μL/well, and the resulting mixture was incubated for 30 min at 25° C. The liquid in the wells was discarded, and the microplate was washed three times with a washing solution; a substrate solution was added at 100 μL/well, and the resulting mixture was incubated for 30 min at 25° C.; the terminator was added at 50 μL/well, and the absorbance at 405 nm was detected within 30 min by using a microplate reader.

C[C@H](NC(=O)[C@H]1C[C@H](Cc2ccc(F)c(Cl)c2)CN1)C(=O)N[C@@H]1CCc2nc(N)ccc21 [Compound L012-IS-01, (2R,4S)—N—((S)-1-(((R)-2-amino-6,7-dihydro-5H-cyclopenta[b]pyridin-5-yl)amino)-1-oxopropan-2-yl)-4-(3-chloro-4-fluorobenzyl) pyrrolidine-2-carboxamide]
IC50: 3.88 nM
